Test results published in PubChem BioAssay AID270 (DTP/NCI, 2004).
The list shows only some results of the screen, not a fair sample: it gathers tests that were run many times, whatever their T/C, doses with no T/C, and many T/C values between a quarter and a half above the control. Further doses and runs are listed elsewhere. T/C is the treated group as % of the vehicle group. Some doses have a count of surviving animals in place of a T/C: the source files T/C as zero there, which appears to mark a toxic dose or a test without result, not a measured value. Some doses without a T/C left all or most animals alive at the check, yet need not have been tolerated: the source hardly ever lists a survival T/C far under the control, and the zero likely stands for such cases as well. Counts of survivors are from the toxicity check (mostly the fifth day) where no day follows; animals may have died later. Schedules are NCI's codes, read here as Q, the interval in days (D) or hours (H), X, the number of doses. Some entries were tested several times; the results are listed from low to high. For survival time, this PubChem deposit counts one and a half times the control or more as active, and values a quarter to a half above the control carry no call in these data; other NCI protocols may use other cut-offs.

System: BDF1 mice, s.c. Lewis lung carcinoma, T/C %
Test: NCI In Vivo Anticancer Drug Screen. Data for tumor model Lewis Lung Carcinoma (subcutaneous) in B6D2F1 (BDF1) mice
How it was run: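 First, mice carry a transplantable tumor. Next, groups receive either compound or vehicle. Finally, survival or tumor dimensions in the dosed animals are divided by the corresponding control figure.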

SMILES: Nc1ncnc2c1ncn2C1OC(CO)C(O)C1O (centres undefined)
- survivor count (T/C endpoint: median survival time, dose: 60.0 mg/kg/injection, schedule: Q03HX024 (ip), vehicle: saline with Tween-80, higher T/C = longer survival): 10 of 10

SMILES: OC1c2cc(Cl)ccc2-c2c(Cl)cc(Cl)cc21 (centres undefined)
- survivor count (T/C endpoint: mean tumor weight, dose: 250.0 mg/kg/injection, schedule: Q01DX011 (ip), vehicle: carboxymethylcellulose (CMC), higher T/C = larger tumour): 2 of 6

SMILES: Cc1cc(C)nc(NS(=O)(=O)c2ccc(N=Nc3nc4[nH]c(N)nc(=S)c4[nH]3)cc2)n1
- survivor count (T/C endpoint: median survival time, dose: 3.12 mg/kg/injection, schedule: Q01DX009 (ip), vehicle: Klucel (hydroxypropylcellulose) (HPC), higher T/C = longer survival): 10 of 10
- survivor count (T/C endpoint: median survival time, dose: 6.25 mg/kg/injection, schedule: Q01DX009 (ip), vehicle: Klucel (hydroxypropylcellulose) (HPC), higher T/C = longer survival): 10 of 10
- survivor count (T/C endpoint: median survival time, dose: 12.5 mg/kg/injection, schedule: Q01DX009 (ip), vehicle: Klucel (hydroxypropylcellulose) (HPC), higher T/C = longer survival): 10 of 10
- survivor count (T/C endpoint: median survival time, dose: 25.0 mg/kg/injection, schedule: Q01DX009 (ip), vehicle: Klucel (hydroxypropylcellulose) (HPC), higher T/C = longer survival): 10 of 10
- survivor count (T/C endpoint: median survival time, dose: 50.0 mg/kg/injection, schedule: Q01DX009 (ip), vehicle: Klucel (hydroxypropylcellulose) (HPC), higher T/C = longer survival): 10 of 10
- survivor count (T/C endpoint: median survival time, dose: 100.0 mg/kg/injection, schedule: Q01DX009 (ip), vehicle: Klucel (hydroxypropylcellulose) (HPC), higher T/C = longer survival): 10 of 10
- survivor count (T/C endpoint: median survival time, dose: 200.0 mg/kg/injection, schedule: Q01DX009 (ip), vehicle: Klucel (hydroxypropylcellulose) (HPC), higher T/C = longer survival): 8 of 10

SMILES: CCCCC[C@H](O)/C=C/[C@H]1[C@H](O)CC(=O)[C@@H]1C/C=C\CCCC(=O)O
- survivor count (T/C endpoint: median survival time, dose: 100.0 mg/kg/injection, schedule: Q04DX002 (ip), vehicle: saline with Tween-80, higher T/C = longer survival): 2 of 3
- survivor count (T/C endpoint: median survival time, dose: 200.0 mg/kg/injection, schedule: Q04DX002 (ip), vehicle: saline with Tween-80, higher T/C = longer survival): 3 of 3
- survivor count (T/C endpoint: median survival time, dose: 400.0 mg/kg/injection, schedule: Q04DX002 (ip), vehicle: saline with Tween-80, higher T/C = longer survival): 0 of 3

SMILES: CN(Cc1cnc2nc(N)nc(N)c2n1)c1ccc(C(=O)N[C@@H](CCC(=O)O)C(=O)O)cc1
- survivor count (T/C endpoint: mean tumor weight, dose: 3.0 mg/kg/injection, schedule: Q01DX011 (ip), vehicle: alkali diluted with saline, higher T/C = larger tumour): 2 of 10
- survivor count (T/C endpoint: median survival time, dose: 0.5 mg/kg/injection, schedule: Q01DX009 (ip), vehicle: saline, higher T/C = longer survival): 10 of 10
- survivor count (T/C endpoint: median survival time, dose: 1.0 mg/kg/injection, schedule: Q01DX009 (ip), vehicle: saline with Tween-80, higher T/C = longer survival): 10 of 10
- T/C (T/C endpoint: median survival time, dose: 2.0 mg/kg/injection, schedule: Q01DX009 (ip), vehicle: Klucel (hydroxypropylcellulose) (HPC), higher T/C = longer survival): 132 % of control
- survivor count (T/C endpoint: median survival time, dose: 2.0 mg/kg/injection, schedule: Q01DX009 (ip), vehicle: saline with Tween-80, higher T/C = longer survival): 10 of 10 and 9 of 9
- survivor count (T/C endpoint: median survival time, dose: 4.0 mg/kg/injection, schedule: Q01DX009 (ip), vehicle: saline with Tween-80, higher T/C = longer survival): 9 of 10 and 10 of 10
- survivor count (T/C endpoint: median survival time, dose: 4.0 mg/kg/injection, schedule: Q01DX009 (ip), vehicle: saline, higher T/C = longer survival): 10 of 10
- survivor count (T/C endpoint: median tumor weight (est.), dose: 2.0 mg/kg/injection, schedule: Q01DX009 (ip), vehicle: saline with Tween-80, higher T/C = larger tumour): 5 of 9
- survivor count (T/C endpoint: median tumor weight (est.), dose: 4.0 mg/kg/injection, schedule: Q01DX009 (ip), vehicle: saline with Tween-80, higher T/C = larger tumour): 5 of 10

SMILES: CO/[N+]([O-])=C\C(=O)N/C=C/C(=O)O
- survivor count (T/C endpoint: mean tumor weight, dose: 50.0 mg/kg/injection, schedule: Q01DX011 (ip), vehicle: carboxymethylcellulose (CMC), higher T/C = larger tumour): 0 of 6
- survivor count (T/C endpoint: mean tumor weight, dose: 75.0 mg/kg/injection, schedule: Q01DX011 (ip), vehicle: carboxymethylcellulose (CMC), higher T/C = larger tumour): 0 of 6

SMILES: COc1cc(-c2ccc(Nc3ccccc3C(=O)O)c(OC)c2)ccc1N
- survivor count (T/C endpoint: mean tumor weight, dose: 80.0 mg/kg/injection, schedule: Q01DX011 (ip), vehicle: carboxymethylcellulose (CMC), higher T/C = larger tumour): 0 of 6
